{"source": "patent US6573282B1", "about": "(priority 1995, dated 2003)", "test_system": "formalin-induced nociception", "assay": "Formalin-induced flinching (early and late/tonic phase), intrapaw injection", "type": "in vivo, rat", "data": [{"smiles": "CN1CC[C@]23c4c5ccc(O)c4O[C@H]2[C@@H](O)C=C[C@H]3[C@H]1C5.O=S(=O)(O)O", "note": "[morphine, morphine sulfate]", "values": [{"measurement": "Formalin-Induced Flinching (Late Phase) % Maximal Efficacy", "value": 83, "unit": "%"}, {"measurement": "Formalin-Induced Flinching (Late Phase) ED50", "value": 72, "unit": "μg i. paw"}]}]}
